Data published in the supplement of paper PMC9433722.
Counter-ions that a name gives are not always drawn. The list shows a part of the results. Many values rest on one well or one pass, so single values are uncertain.

Columns and labels:
Saos-2 = assay: cell viability (CCK-8) relative to DMSO control (% of control); higher = less cytotoxic; settings: 10 µM; 48 h
U2OS = assay: as above; settings: 10 µM; 48 h

| Compound | cell viability (Saos-2) | cell viability (U2OS) |
| --- | --- | --- |
| COC[C@@H](NC(C)=O)C(=O)NCc1ccccc1 [Lacosamide] | 118 | 81.1 |
| COc1ccc(C(CN(C)C)C2(O)CCCCC2)cc1 (configuration not stated) [Venlafaxine·HCl] | 65.1 | 93.7 |
| CC1C=CC=CCCC=CC=CC=CC=CC(OC2OC(C)C(O)C(N)C2O)CC2OC(O)(CC(O)C(O)CCC(O)CC(O)CC(O)CC(=O)OC(C)C(C)C1O)CC(O)C2C(=O)O (configuration not stated) [Nystatin] | 71.6 | 93.2 |
| COc1cc2c(cc1OC)C1CC(=O)C(CC(C)C)CN1CC2 (configuration not stated) [Tetrabenazine] | 110 | 98.6 |
| C=CCN1CC[C@]23c4c5ccc(O)c4O[C@H]2C(=O)CC[C@@]3(O)[C@H]1C5 [Naloxone . hydrochloride] | 67.1 | 106 |
| NCC(CC(=O)O)c1ccc(Cl)cc1 (racemic) [(±)-Baclofen] | 121 | 109 |
| Cc1cccc([C@H](C)c2c[nH]cn2)c1C [Dexmedetomidine·HCl] | 101 | 108 |
| CN1[C@@H]2CC[C@H]1C[C@@H](OC(=O)C(CO)c1ccccc1)C2 (some centres not stated) [Atropine Sulfate Monohydrate] | 60.3 | 109 |
| O=C1CC[C@@]2(O)[C@H]3Cc4ccc(O)c5c4[C@@]2(CCN3CC2CC2)[C@H]1O5 [Naltrexone·HCl] | 61.1 | 117 |
| CCOC(=O)c1cncn1[C@H](C)c1ccccc1 [Etomidate] | 105 | 93 |
| CN1C[C@H](C(=O)N[C@]2(C)O[C@@]3(O)[C@@H]4CCCN4C(=O)[C@H](Cc4ccccc4)N3C2=O)C[C@@H]2c3cccc4[nH]cc(c34)C[C@H]21 [Dihydroergotamine Mesylate] | 56.9 | 120 |
